Patent US20030013711A1, “Chemical derivatives and their application as antitelomerase agents” (priority 2001, published 2003)
At least one compound was matched to its structure with a doubt left.

What was measured:
[1] = test system: human telomerase (HL60 cell extract); assay: TRAP telomerase activity assay (TS oligonucleotide extension + PCR); assay type: biochemical; details: HL60 cell extract enriched in telomerase activity
[2] = test system: G-quadruplex oligonucleotide GGGTTAGGGTTAGGGTTAGGG (human telomeric motif, FAM+DABCYL); assay: G-quadruplex stabilization, fluorescence Tm; assay type: binding; details: product 1 μM, oligonucleotide 0.2 μM, 0.1 M LiCl 10 mM cacodylate pH 7.6; reference Tm 44° C.

Compound	IC50 [1] [µM]	G-4 Delta Tm [2] [°C]
CSc1nc(Nc2ccc3nc(C)cc(N)c3c2)nc(OCCN(C)C)n1 [Example 1, N6-[6-(2-dimethylaminoethoxy)-4-methylsulfanyl-[1,3,5]triazin-2-yl]-2-methylquinoline-4,6-diamine]	3.3	2.6
CSc1nc(Nc2ccc3nc(C)cc(N)c3c2)nc(OCCCN(C)C)n1 [Example 2, N6-[6-(3-dimethylaminopropoxy)-4-methylsulfanyl-[1,3,5]triazin-2-yl]-2-methylquinoline-4,6-diamine]	2	6.2
CSc1nc(Nc2ccc3nc(C)cc(N)c3c2)nc(OC2CCN(C)CC2)n1 [Example 3, N6-[6-(1-methylpiperid-4-yloxy)-4-methylsulfanyl-[1,3,5]triazin-2-yl]-2-methylquinoline-4,6-diamine]	0.87	4.5
CSc1nc(Nc2ccc3nc(C)cc(N)c3c2)nc(SCCN(C)C)n1 [Example 4, N6-[6-(2-dimethylaminoethylsulfanyl)-4-methylsulfanyl-[1,3,5]triazin-2-yl]-2-methylquinoline-4,6-diamine]	0.66	4.1
